Measurements reported in PubChem BioAssay AID1671195 (Yale University, 2021)
In all, the deposit lists about 22,000 reagents; shown is a random part of them. About 1,510 of them (6.9%) count as active. 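Active includes knockdowns raising or lowering LDL uptake; positive z-scores mean more uptake, negative mean less.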 Reagent sequences are not shown.

- Assay: 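Knockdowns that increase or decrease uptake of fluorescent LDL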 (primary screen)
- Cell system: human Huh7 hepatoma cells
- Reagent: siRNA pool against human genes, 18 nM
- Duration: about 2 to 2.5 days of knockdown, then 8 h LDL uptake
- Challenge: DiI-labelled LDL at 30 µg/ml for 8 h, in lipoprotein-deficient serum medium
- Measured: 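Fluorescent LDL signal imaged in cells, scaled to the plate median, robust z-score for each replicate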
- Reading the numbers: robust z-score: higher = more LDL uptake after knockdown
- Rule for the call: 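Active when two or more replicates show a robust z-score above 2 or below -2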

Silencing of PARL came out at: robust z-score, replicate 1 = 2.43; robust z-score, replicate 2 = 2.33; robust z-score, replicate 3 = 2.73; active. With knock-down of PCDH10, the screen gave robust z-score, replicate 1 = 0.189; robust z-score, replicate 2 = 0.536; robust z-score, replicate 3 = 0.162; inactive. After knock-down of ATP2C2 the results were robust z-score, replicate 1 = -0.583; robust z-score, replicate 2 = -0.0331; robust z-score, replicate 3 = 0.365; inactive. Depletion of NBPF12 resulted in: robust z-score, replicate 1 = -0.766; robust z-score, replicate 2 = -0.552; robust z-score, replicate 3 = -0.869; inactive. Knock-down of CASP8AP2 gave: robust z-score, replicate 1 = 0.824; robust z-score, replicate 2 = -1.17; robust z-score, replicate 3 = 1.28; inactive. ZNF718 gave robust z-score, replicate 1 = -0.516; robust z-score, replicate 2 = -0.288; robust z-score, replicate 3 = -0.211; inactive.

Knock-down of OR5B3 gave: robust z-score, replicate 1 = 0.194; robust z-score, replicate 2 = 0.255; robust z-score, replicate 3 = 0.406; inactive. UPRT scored robust z-score, replicate 1 = 0.971; robust z-score, replicate 2 = 1.13; robust z-score, replicate 3 = 1.65; inactive. POLG scored robust z-score, replicate 1 = 0.0391; robust z-score, replicate 2 = 0.237; robust z-score, replicate 3 = 0.432; inactive. LBX1-AS1 gave robust z-score, replicate 1 = -1.08; robust z-score, replicate 2 = -1.11; robust z-score, replicate 3 = -1.26; inactive. Against OR52W1, the entry reads robust z-score, replicate 1 = -0.252; robust z-score, replicate 2 = 1.23; robust z-score, replicate 3 = 1.76; inactive. TARBP1 gave robust z-score, replicate 1 = 1.08; robust z-score, replicate 2 = 1.6; robust z-score, replicate 3 = 1.67; inactive.

ESAM gave robust z-score, replicate 1 = -1.21; robust z-score, replicate 2 = -0.827; robust z-score, replicate 3 = -0.282; inactive. Silencing of SPACA6 came out at: robust z-score, replicate 1 = 2.18; robust z-score, replicate 2 = 2.38; robust z-score, replicate 3 = 1.19; active. Silencing of LOC441404 (retired record) gave: robust z-score, replicate 1 = 0.318; robust z-score, replicate 2 = 0.499; robust z-score, replicate 3 = 0.5; inactive. SLC19A3 showed robust z-score, replicate 1 = -0.86; robust z-score, replicate 2 = -1.46; robust z-score, replicate 3 = -1.05; inactive. For LRCH2, the values are robust z-score, replicate 1 = -1.07; robust z-score, replicate 2 = -1.19; robust z-score, replicate 3 = -1.21; inactive. For ST6GALNAC3 the deposit lists robust z-score, replicate 1 = 1.32; robust z-score, replicate 2 = 1.23; robust z-score, replicate 3 = 1.04; inactive.

For FCRL5 the deposit lists robust z-score, replicate 1 = 2.73; robust z-score, replicate 2 = 2.54; robust z-score, replicate 3 = 1.84; active. Knock-down of FBXO15 came out at: robust z-score, replicate 1 = 0.282; robust z-score, replicate 2 = -0.971; robust z-score, replicate 3 = -1.45; inactive. HAX1 scored robust z-score, replicate 1 = 0.144; robust z-score, replicate 2 = 0.681; robust z-score, replicate 3 = -0.928; inactive. For DCBLD2, the entry reads robust z-score, replicate 1 = -0.178; robust z-score, replicate 2 = 1.21; robust z-score, replicate 3 = 0.878; inactive. For ANKRD20A9P, the entry reads robust z-score, replicate 1 = 0.516; robust z-score, replicate 2 = 0.19; robust z-score, replicate 3 = 0.598; inactive. Knock-down of SPCS2P1 gave: robust z-score, replicate 1 = 0.196; robust z-score, replicate 2 = 0.923; robust z-score, replicate 3 = 0.521; inactive.

PPARG showed robust z-score, replicate 1 = 1.02; robust z-score, replicate 2 = -0.248; robust z-score, replicate 3 = -0.0972; inactive. Depletion of GLIPR1 gave: robust z-score, replicate 1 = -0.166; robust z-score, replicate 2 = 0.928; robust z-score, replicate 3 = 0.33; inactive. Against RAB11FIP3, the values are robust z-score, replicate 1 = -0.0385; robust z-score, replicate 2 = -0.729; robust z-score, replicate 3 = -1.45; inactive. After knock-down of LOC390827 (retired record), the record shows robust z-score, replicate 1 = -0.633; robust z-score, replicate 2 = -1.04; robust z-score, replicate 3 = -0.978; inactive. After knock-down of LOC440833 (retired record), the record shows robust z-score, replicate 1 = -1.47; robust z-score, replicate 2 = -1.68; robust z-score, replicate 3 = -1.39; inactive. With knock-down of DAPK2 the results were robust z-score, replicate 1 = -0.15; robust z-score, replicate 2 = -0.711; robust z-score, replicate 3 = -0.267; inactive.

2 of these entries, reformatted.
{"gene":"PCDH10","robust z-score, replicate 1":0.189,"robust z-score, replicate 2":0.536,"robust z-score, replicate 3":0.162,"call":"inactive"}
{"gene":"ATP2C2","robust z-score, replicate 1":-0.583,"robust z-score, replicate 2":-0.0331,"robust z-score, replicate 3":0.365,"call":"inactive"}
